PubChem BioAssay AID2685 (National Center for Advancing Translational Sciences (NCATS), 2010)
Some of the results follow. These are further read-outs of the screen, such as a control signal, another cell line or another target. No call is given for them. Compounds called inactive in the main read-out are mostly missing here. Words in brackets tell the shape of the fitted curve; partial curves, single points and poor fits give uncertain potencies.

Experiment: qHTS Assay for Lipid Storage Modulators in Drosophila S3 Cells;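 on cell number change: cells counted by Cell Tracker Red CMTPX staining in the red channel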
Details: BODIPY lipid droplet fluorescence, 18-24 h; for cell number change: measured here: cell count max response, cells fed with added oleic acid
In short: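 Drosophila S3 cells got compounds at several concentrations plus oleic acid (400 uM solution). Laser-scanning cytometry with 488 nm excitation read lipid droplets at 500-530 nm and cells at 575-640 nm. Percent activity was relative to 20 uM Triacsin C.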

[1] = measured here: cell number channel AC50, cells fed with added oleic acid
[2] = measured here: lipid fluorescence (Fed channel) AC50, cells fed with added oleic acid

Structure (SMILES) | cell number change [%] | AC50 [1] | AC50 [2]
Cc1nc2ccccc2cc1C(=O)NCc1ccc(F)cc1 | -131 | 29.1 µM [falling, partial curve, poor fit] | –
CN(C)S(=O)(=O)c1ccc(N2CCCC2)c(C(=O)NCc2ccc(Cl)cc2)c1 | 73.1 | 18.4 µM [rising, partial curve] | 18.4 µM [rising, partial curve]
COC(=O)NC(NC(=S)Nc1ccc([N+](=O)[O-])cc1)C(Cl)(Cl)Cl (stereo unspecified) | -29.9 | – | 32.6 µM [falling, single point]
CCOc1ccccc1C1C(C(N)=O)=C(C)Nc2nc(-c3ccccc3Cl)nn21 (stereo unspecified) | – | – | 6.51 µM [rising, single point]
CCc1ccc(-c2cc3c(=O)n(CC(=O)NCCCN4CCC(Cc5ccccc5)CC4)nc(C)n3n2)cc1 | -13.9 | – | 8.2 µM [rising, full curve, poor fit]
COc1ccccc1C(=O)Nc1cccnc1 | 1.62 | 0.517 µM [falling, single point] | 0.651 µM [falling, single point]
COc1cc(Br)cc(/C=N/N(CCO)C2=NS(=O)(=O)c3ccccc32)c1OC | -20.9 | – | –
O=S(=O)(NCCc1ccccc1)c1cccc(S(=O)(=O)N2CCOCC2)c1 | 1.19 | – | –
Cc1ccc(C)c(C(=O)COC(=O)c2cc(Cl)nc3ccccc23)c1 | 9.05 | 0.146 µM [falling, full curve, poor fit] | 3.66 µM [rising, partial curve, poor fit]
COc1cc(O)c(NC(C)=O)c2nonc12 | 35.9 | 32.6 µM [rising, single point] | 4.61 µM [rising, full curve]
CCCN1C2CCCC1CC(NC(=O)c1cccc(OC)c1)C2 (stereo unspecified) | -2.85 | – | –
O=c1c(-c2ccc(Br)cc2)[n+]([O-])c2ccccc2n1OCc1ccccc1 | 50.1 | 0.92 µM [rising, partial curve] | 29.1 µM [rising, single point]
CN(CC(=O)Nc1ccc(Cl)c(C(F)(F)F)c1)C(=O)c1cn2ccccc2n1 | 43.8 | 20.6 µM [rising, single point] | –
COc1cc(/C=N/Nc2nc3ccccc3[nH]2)cc(Br)c1OCC(=O)N(C)C | -1.58 | – | 29.1 µM [falling, single point]
COc1cccc(CN(C(=O)COc2ccccc2[N+](=O)[O-])C2CCS(=O)(=O)C2)c1 (stereo unspecified) | -25.7 | – | 16.4 µM [falling, partial curve, poor fit]
COc1ccc(C(C(=O)NCC2CCCO2)N(C(=O)Cn2nnc3ccccc32)c2ccc(NC(C)=O)cc2)cc1OC (stereo unspecified) | 4.84 | – | –
COc1ccc(C2CC(c3cccs3)=NN2C(=O)CCl)cc1OC (stereo unspecified) | -36.5 | 18.4 µM [falling, single point] | –
O=C(O)Cn1c(SCc2ccccc2)nc2ccccc21 | -19.5 | – | 18.4 µM [falling, single point]
Cc1cccc(NC(=O)c2ccccc2OCC(=O)N2CCOCC2)c1C | -20 | – | –
COc1ccccc1C(=O)NCCC(=O)N(C)Cc1cccnc1 | 3.05 | – | 1.03 µM [rising, full curve, poor fit]
CCOC(=O)N1CCN(CC(=O)Nc2cccc(Br)c2)CC1 | -4.29 | – | 29.1 µM [rising, single point]

Just AC50 [1] and AC50 [2], for some of the entries so far:
Structure (SMILES) | AC50 [1] | AC50 [2]
CCc1ccc(-c2cc3c(=O)n(CC(=O)NCCCN4CCC(Cc5ccccc5)CC4)nc(C)n3n2)cc1 | – | 8.2 µM [rising, full curve, poor fit]
COc1ccccc1C(=O)Nc1cccnc1 | 0.517 µM [falling, single point] | 0.651 µM [falling, single point]

(list continues)

Structure (SMILES) | cell number change [%] | AC50 [1] | AC50 [2]
CC(=O)c1c(Nc2ccccc2)sc(C(=O)c2ccccc2)c1C | 33.5 | 11.6 µM [rising, partial curve] | –
CSc1ccccc1NC(=O)CSCc1ccc(C)cc1 | 41.7 | 18.4 µM [rising, single point] | –
Cc1cccc(NC(=S)NCCCN2CCOCC2)c1 | -8.88 | – | 6.51 µM [rising, single point]
Cc1ccc2cc(CN(Cc3cccs3)Cc3nnnn3C(C)(C)C)c3nnnn3c2c1 | 32.9 | 20.6 µM [rising, partial curve, poor fit] | 0.651 µM [rising, partial curve]
Cc1ccc2[nH]c(C(=O)N/N=C/c3ccccc3O)c(C)c2c1 | 10.8 | – | 29.1 µM [falling, single point]
Cc1csc(SCCN2C(=O)c3ccccc3C2=O)n1 | 41.7 | 8.2 µM [rising, partial curve] | 16.4 µM [rising, partial curve]
Clc1ccc(Cl)c(-c2nc(-c3ccncc3)no2)c1 | 5.57 | – | 29.1 µM [rising, single point]
CCO/C(C)=C1\C(=O)Nc2ccccc21 | -16.8 | – | 9.2 µM [falling, partial curve]
CCOc1ccc2c(c1)c(N=Nc1cccc(C(=O)O)c1)c(O)n2C | 7.32 | – | –
C=CCNc1nc(C(=O)OCC(=O)Nc2cc(S(C)(=O)=O)ccc2Cl)cs1 | 15.5 | – | –
O=C(Nc1n[nH]c(=S)s1)c1ccco1 | -1.8 | – | –
O=C(CN1CCOCC1)Nc1ccccc1F | 3.81 | – | 29.1 µM [rising, single point]
OCCC1CN(Cc2cnn(-c3ccc(F)cc3)c2)CCN1Cc1ccsc1 (stereo unspecified) | 0.591 | – | 5.17 µM [rising, partial curve, poor fit]
CC(C)Oc1ccc(C(=O)NC(Cc2c[nH]c3ccccc23)C(=O)NN)cc1 (stereo unspecified) | – | 2.91 µM [rising, single point] | –
Cc1cc(/C=C(\C#N)C(=O)NC2CCCCCC2)c(C)n1C | – | – | 0.103 µM [falling, full curve, poor fit]
COc1ccc(C)cc1S(=O)(=O)N1CCN(c2ccccc2)CC1 | -2.05 | – | –
CCCCN(C(=O)C1CCN(C(=O)c2ccccc2C)CC1)c1c(N)n(CCC)c(=O)[nH]c1=O | 34.6 | 3.66 µM [rising, full curve] | 0.411 µM [falling, full curve]
Cc1nc2ccccc2c(=O)n1/N=C/c1ccc(O)cc1 | -6.76 | – | –
O=C(NCCc1ccccc1)c1cccc(S(=O)(=O)N2CCCCC2)c1 | 14.5 | – | –
COc1ccc(/C=N/n2c(C)nnc2C)c(OC)c1OC | -14.6 | – | 0.103 µM [falling, full curve, poor fit]
